Source: PubChem BioAssay AID504467 (National Center for Advancing Translational Sciences (NCATS), 2011)
In all, about 330,000 compounds went through this assay and about 7,700 (2.3%) were called active. The shares of active, inactive and inconclusive entries below differ from those in the screen. The call rests on the fitted dose curve; in most records, active means well fitted inhibition curve with a large enough effect; inconclusive means small, poorly fitted or top-dose-only effect, or effect the other way; inactive means flat fitted curve, though single readings scatter. A potency beside an inconclusive call is a rough fit, not a confirmed value.

assay: qHTS screen for small molecules that inhibit ELG1-dependent DNA repair in human embryonic kidney (HEK293T) cells expressing luciferase-tagged ELG1; details: HEK293T ELG1-luciferase reporter, luminescence, 16 h, DNA damage induced by 5-fluorouridine; series mostly up to 46.1 µM; further: nearly all actives have a fitted effect of over 55% in size
Summary of the method: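 Overnight (16 hr) co-exposure of 2,000 cells/well to 5-fluorouridine and compound at 37 °C preceded detection. Luciferase was quantified via ONE-Glo luminescence; loss of signal denotes inhibition.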
Potency means the concentration at half of the fitted maximal effect.

| Structure (SMILES) | Potency |
| --- | --- |
| Cc1cccc(C)c1OCC(O)CNC(C)c1ccccc1 (stereo not drawn) | inactive |
| Cc1cc(/C=N/n2cnnc2)c(C)n1-c1ccc(OCc2ccc(Cl)cc2)cc1 | inconclusive: 2.59 µM [inhibitor, partial curve, poor fit] |
| CSCCC(NC(=O)c1ccccc1Br)C(=O)NNC(=O)c1cc(C)oc1C (stereo not drawn) | inactive |
| FC(F)(F)Oc1ccc(NC(=S)Nc2ccccc2N2CCOCC2)cc1 | inconclusive: 14.6 µM [inhibitor, partial curve, poor fit] |
| O=C(CSC(=S)N1CCOCC1)Nc1nc(-c2ccccc2)c(-c2ccccc2)o1 | inactive |
| COc1c(C(O)CC(C)C)ccc2c1C(=O)OCc1cc(C)cc(O)c1O2 (stereo not drawn) | inconclusive: 3.66 µM [inhibitor, partial curve, poor fit] |
| COc1cc(OC)cc(C(=O)Nc2ccc(Nc3ccccc3)cc2)c1 | inconclusive: 0.058 µM [inhibitor, full curve, poor fit] |
| COc1ccccc1C(=O)NC(=O)COC(=O)c1ccc(Br)o1 | inconclusive: 29.1 µM [activator, single point] |
| Cc1ccc(NC(=S)N2CCCC(O)C2)cc1 (stereo not drawn) | inconclusive: 20.6 µM [activator, partial curve] |
| Cc1c(C(=O)Oc2cccc3ccccc23)cnn1-c1ccccc1 | inconclusive: 14.6 µM [activator, partial curve] |
| Cc1cc(N2CCC(C(=O)NC3CC3)CC2)nc(-c2ccccc2)n1 | inconclusive: 25.9 µM [inhibitor, partial curve, poor fit] |
| CC(C)CN(C(=O)c1cc(=O)[nH]c2ccccc12)c1c(N)n(Cc2ccccc2)c(=O)[nH]c1=O | inactive |
| COC(=O)c1cccc(Nc2ncnc3sccc23)c1 | inconclusive: 32.6 µM [inhibitor, partial curve, poor fit] |
| COc1cccc(NC(=O)C(=O)N/N=C/c2cc(C)n(-c3ccc(Cl)c(Cl)c3)c2C)c1 | inconclusive: 18.4 µM [activator, partial curve] |
| CCN(CC)C(=O)CSc1nc(-c2cccs2)cc(-c2cccs2)c1C#N | active: 16.4 µM |
| COc1ccc(C(CNC(=O)Cc2cc(OC)c(OC)c(OC)c2)N2CCCC2)cc1 (stereo not drawn) | inactive |
| O=C(/C=C\c1ccc(-c2cccc([N+](=O)[O-])c2)o1)N1CCOCC1 | inactive |
| O=C(c1ccc(Cl)cc1)N(Cc1cccs1)C1CCS(=O)(=O)C1 (stereo not drawn) | inactive |
| Cc1ccc2nc3c(nc2c1)-c1ccccc1C3=O | inconclusive: 23.1 µM [activator, partial curve] |
| Cc1cc([N+](=O)[O-])ccc1NC(=O)c1cc2ccccc2o1 | inconclusive: 13 µM [activator, partial curve] |
| Cc1cc(C(=O)COC(=O)c2ccc[nH]c2=O)c(C)n1-c1ccc(F)cc1 | inconclusive: 1.84 µM [activator, full curve] |
| COCCn1c(=O)[nH]c2cc(C(=O)NCCN3CCN(c4cccc(Cl)c4)CC3)ccc2c1=O | active: 20.6 µM |

| Structure (SMILES) | Potency |
| --- | --- |
| O=C(c1cc2cc(F)ccc2[nH]1)N1CCc2ccccc21 | inconclusive: 2.91 µM [activator, full curve] |
| Cc1occc1C(=O)Nc1cc(C(F)(F)F)ccc1Cl | inconclusive: 25.9 µM [activator, single point] |
| COc1ccc2[nH]c(CN3CCC(CO)(CCOc4ccccc4)CC3)c(C)c2c1 | inconclusive: 29.1 µM [activator, single point] |
| COCCNC(=O)c1cn(C)c2ccc(S(=O)(=O)N3CCCCC3)cc2c1=O | active: 2.91 µM |
| COc1ccc(Cl)cc1C(=O)NNC(=S)NC(=O)c1cc(-c2ccc(Cl)cc2)nc2ccccc12 | inactive |
| CC(C)(C)c1ccc2c(c1)OC(C(=O)N/N=C/c1ccc([N+](=O)[O-])o1)CO2 (stereo not drawn) | inconclusive: 29.1 µM [inhibitor, single point] |
| Cc1nc(C)c(C(=O)Nc2cccc(C)c2C)s1 | inconclusive: 29.1 µM [activator, partial curve, poor fit] |
| Cc1cc(C(=O)N/N=C/c2cc(Br)cc([N+](=O)[O-])c2O)c2ccccc2n1 | inconclusive: 29.1 µM [inhibitor, single point] |
| COC(=O)c1c(NC(=O)c2nn(C)cc2Cl)sc2c1CCCC2 | inconclusive: 32.6 µM [inhibitor, single point] |
| CCOC(=O)CSc1nc(C)nc2c1sc1nc(C)c(C(C)=O)c(-c3ccc(OC)cc3)c12 | inconclusive: 18.4 µM [inhibitor, partial curve] |
| COCCN(CC(=O)Nc1cccc(C)c1C)C(=O)c1cc(-c2ccncc2)nc2ccccc12 | inconclusive: 14.6 µM [inhibitor, partial curve] |
| Cc1ccc(-c2noc(CCC(N)=O)n2)cc1 | inconclusive: 18.4 µM [activator, single point] |
| COc1ccc(/C=N\NC(=O)CC(=O)Nc2cccc(Cl)c2)cc1OC | inactive |
| CCN(CC)CCN1C(=O)C(=O)/C(=C(/O)c2ccc(OC(C)C)cc2)C1c1cccs1 (stereo not drawn) | inconclusive: 14.6 µM [activator, partial curve] |
| COc1ccc(N2Cc3ccc(C(=O)N/N=C\c4ccc(O)cc4O)cc3C2)cc1 | inconclusive: 29.1 µM [inhibitor, partial curve, poor fit] |
| Cc1cc2cc(CN(CCN(C)C)C(=S)NCc3ccco3)c(=O)[nH]c2cc1C | inconclusive: 16.4 µM [inhibitor, partial curve, poor fit] |
| COc1cccc(C(=O)c2c[nH]c(C(=O)NCc3cccnc3)c2)c1 | inactive |
| COc1ccc(N(CC(=O)N2CCN(c3cccc(C)c3C)CC2)S(=O)(=O)c2c(C)noc2C)cc1 | inactive |
| CCOc1cc(N2CCOCC2)c(OCC)cc1NC(=O)COC(=O)CCOc1ccc(C)cc1 | inactive |
| CC1=C(C(=O)Nc2ccc(CC(=O)NCc3ccccc3C)cc2)SCCO1 | inconclusive: 9.2 µM [activator, partial curve] |
| Cc1cccc(C)c1N(Cc1ccccc1F)S(C)(=O)=O | inactive |

Nine entries from above, reformatted.
Structure (SMILES) | Potency
CC(C)CN(C(=O)c1cc(=O)[nH]c2ccccc12)c1c(N)n(Cc2ccccc2)c(=O)[nH]c1=O | inactive
COC(=O)c1cccc(Nc2ncnc3sccc23)c1 | inconclusive: 32.6 µM [inhibitor, partial curve, poor fit]
COc1cccc(NC(=O)C(=O)N/N=C/c2cc(C)n(-c3ccc(Cl)c(Cl)c3)c2C)c1 | inconclusive: 18.4 µM [activator, partial curve]
CCN(CC)C(=O)CSc1nc(-c2cccs2)cc(-c2cccs2)c1C#N | active: 16.4 µM
COc1ccc(C(CNC(=O)Cc2cc(OC)c(OC)c(OC)c2)N2CCCC2)cc1 (stereo not drawn) | inactive
O=C(/C=C\c1ccc(-c2cccc([N+](=O)[O-])c2)o1)N1CCOCC1 | inactive
O=C(c1ccc(Cl)cc1)N(Cc1cccs1)C1CCS(=O)(=O)C1 (stereo not drawn) | inactive
Cc1ccc2nc3c(nc2c1)-c1ccccc1C3=O | inconclusive: 23.1 µM [activator, partial curve]
Cc1cc([N+](=O)[O-])ccc1NC(=O)c1cc2ccccc2o1 | inconclusive: 13 µM [activator, partial curve]
